Test results as given in paper PMC12040169 (PLOS Biology, 2025).
This is one part of the list.

The compounds below were run on T1, CTL2-GFP (C. trachomatis L2/434/Bu, GFP-expressing). Details: bulk GFP, single well; 28.5 h, 10 µM; inhibitor.
T1 construct: L2/434/Bu, GFP-expressing
Set-up: species or system HeLa; Intracellular C. trachomatis growth in HeLa cells, bulk GFP fluorescence relative to DMSO

In order of rising “% of control remaining” value:
1. Cc1c[n+]2ccsc2n1Cc1ccccc1C#N [CBK260951B]  73.1837%
2. Cc1nc2c(C(=O)NCCOCCO)cnn2c(C)c1Cc1cccc(OC(F)(F)F)c1 [CBK167454]  74.7184%
3. COc1ccc(C)cc1S(=O)(=O)Nc1ccc(O[C@@H]2CCNC2)c2ccccc12 [CBK051622C]  78.6645%
4. N#Cc1ccc(Cn2ccnc(N3CCC(Sc4ccccc4)CC3)c2=O)cc1 [CBK153653]  86.7735%
5. COc1cc(C)c(Nc2cc(-c3cccc(N(C)C)c3)ncn2)cc1OC [CBK090780]  88.5684%
6. CCC(CC)C(=O)N(C)c1c(C)nc2ccc(C(=O)N(C)CCN(C)C)cn12 [CBK146491]  89.7146%
7. CCN(CC)CCN1C(=O)C(O)=C(C(=O)c2ccc(C)o2)C1c1ccccn1 (stereo not drawn) [CBK266584]  92.7123%
8. O=C(Cc1ccc(Cl)cc1)N1CCc2c([nH]c3ccccc23)C12CCN(Cc1ccc(F)cc1)C2 (stereo not drawn) [CBK059453]  94.7842%
9. O=C(c1c(F)cccc1F)N1CCC(O)(c2cccnc2F)CC1 [CBK284359]  98.3471%
10. Cc1ccc(C(=O)Nc2c(C(=O)N3CCN(Cc4ccccc4)CC3)cnn2-c2ccccc2)cc1 [CBK263053]  100%
11. OCCOCCNc1ncnc2sc(-c3ccccc3)cc12 [CBK265951]  102.29%
12. O=C(Cc1cc(F)c(F)c(F)c1)NCCc1c[nH]c2ccc(Cl)cc12 [CBK159768]  103.593%
13. COc1ccc(CCC(C)N2CCN(c3ccc(F)cc3)CC2)cc1 (stereo not drawn) [CBK261922]  105.563%
14. C(CSC1=NCCN1)CSC1=NCCN1 [CBK278217B]  106.923%
15. COC(=O)c1c(NC(=O)CCCC(=O)O)sc(C)c1C [CBK265382]  108.622%
16. CC(=O)Nc1ccc(Nc2cc(-c3ccsc3)ncn2)cc1 [CBK090717]  109.651%
17. O=C(OCc1cc2ccccc2o1)N1CCOCC1 [CBK200162]  111.747%
18. CCCCC(CC)C(=O)N1CCN(c2ccc(OC)cc2)CC1 (stereo not drawn) [CBK091414]  112.726%
19. O=c1cc(N2CCOCC2)oc2ccccc12 [CBK008244G]  113.378%
20. CCc1nc2ccc(C(=O)Nc3ccc(OC)c(OC)c3)cn2c1N(CC)C(=O)NCCc1ccccc1 [CBK147035]  113.835%
21. Cc1nnc(SCc2ccc(CSc3nnc(C)n3N)cc2)n1N [CBK265561]  113.901%
22. COc1ccc(C(=O)O)cc1S(=O)(=O)Nc1cccc(C=Cc2ccccn2)c1 [CBK297763]  116.915%
23. c1ccc(Cn2cncc2-c2cncn2CCCN2CCCCC2)cc1 [CBK281490]  118.783%
24. Cn1ccc(C2CCCCCN2S(=O)(=O)c2ccc3[nH]c(=O)[nH]c(=O)c3c2)n1 (stereo not drawn) [CBK286407]  119.069%
25. O=C(Nc1ccc([C@@H](O)[C@H]2COCC(=O)N2Cc2ccccn2)cc1)c1cccs1 [CBK289700]  119.091%
26. Cc1nn(Cc2ccccc2)c(C)c1NC(=O)CSc1nc2sc3c(c2c(=O)n1C)CCC3 [CBK266069]  119.863%
27. CCNC(=O)Nc1ccccc1C(=O)NC1CCCCC1 [CBK175266]  120.296%
28. Cc1ccc(S(=O)(=O)/N=C(\NC(C)C(=O)O)c2ccccc2)cc1 (stereo not drawn) [CBK263099]  120.474%
29. Cc1nn(C)c(O)c1Cc1c(F)cccc1Cl [CBK067759]  120.743%
30. CCOC(=O)Cc1csc(NS(=O)(=O)c2ccc(Br)cc2C)n1 [CBK200027]  120.94%
31. O=C1CC(C(=O)c2ccccc2)NC(N2CCOCC2)=N1 (stereo not drawn) [CBK267352]  121.611%
32. CCn1c(COc2cccc3cccnc23)nnc1SCC(=O)c1ccc(F)cc1 [CBK265656]  122.668%
33. COC(=O)C(CCSC)NC(=O)c1ccc(C(F)(F)F)cc1 (stereo not drawn) [CBK057452]  123.306%
34. COc1cc(/C=N/NC(=O)c2n[nH]c3c2CCC3)ccc1O [CBK262881]  124.304%
35. CCNc1cccnc1N1CCN(C(=O)CCC(=O)c2ccc(NS(C)(=O)=O)cc2)CC1 [CBK010701]  124.698%
36. Cc1cc2c(cc3c(=O)n(CC(=O)N4CCCC4)nc(C)n32)o1 [CBK283631]  125.704%
37. O=C(CSc1nnc(-c2ccncc2)o1)Nc1ccccc1 [CBK287586]  127.577%
38. Cc1nn(C(C)CC(=O)O)c(C)c1Br (stereo not drawn) [CBK269138]  129.254%
39. CCN(CC)C(=O)CCCc1[nH]nc(O)c1Cc1c(Cl)cccc1Cl [CBK081524]  129.383%
40. Cc1cc(C)n(CCCC(=O)N2CC3(CCNCC3)CC2C(=O)O)n1 (stereo not drawn) [CBK307174]  129.633%
41. O=c1oc(-c2ccncc2)nn1Cc1ccccc1F [CBK283692]  134.073%
42. CCCCCCSc1ccc(C(=O)CCCN2CCOCC2)cc1 [CBK010344]  136.701%
43. CC(=O)N1CCCc2cc(C(O)CN(C)Cc3ccccc3)ccc21 (stereo not drawn) [CBK282149]  137.66%
44. CCn1cc(-c2cncn2C(CCN(C)C)c2ccccc2)cn1 (stereo not drawn) [CBK281741]  142.855%
45. CNC(=O)C1CCCN1C(=O)c1nnn(Cc2ccc(F)cc2F)c1C (stereo not drawn) [CBK306496]  142.904%
46. CCCn1nc(COc2cccc(F)c2)nc1C1CCN(C(C)=O)CC1 [CBK306637]  143.814%
47. O=C(CC1CCCC1)N1CCCC(c2nnc(-c3cccs3)o2)C1 (stereo not drawn) [CBK284631]  145.073%
48. COC(=O)COc1ccc(NC(=O)c2ccc([N+](=O)[O-])c(C)c2)cc1 [CBK268338]  147.289%
49. CN1CCCN(c2cncc(-c3ccc(F)cc3F)n2)CC1 [CBK065858]  147.751%
50. Cc1ccccc1NS(=O)(=O)c1cc(OCC(N)=O)c(C)cc1Cl [CBK266443]  151.759%
51. O=C1N[C@@H]2CCN(CC(=O)N3CCCC3)C[C@@H]2CCCCCOc2ccccc21 [CBK292141]  152.674%
